Test results published in publication PMC4312036.
Results are given in words; binding and its absence hold for the method and conditions named. For some of these results: Binding seen in cells or lysates may run through a third protein. Some entries that bind do so weakly or less than the wild type. Tags and fused reporters may be left off the sequences shown.

Sequences of proteins named here, by UniProt entry; tags and fusion partners are left off.
UniProt Q39026: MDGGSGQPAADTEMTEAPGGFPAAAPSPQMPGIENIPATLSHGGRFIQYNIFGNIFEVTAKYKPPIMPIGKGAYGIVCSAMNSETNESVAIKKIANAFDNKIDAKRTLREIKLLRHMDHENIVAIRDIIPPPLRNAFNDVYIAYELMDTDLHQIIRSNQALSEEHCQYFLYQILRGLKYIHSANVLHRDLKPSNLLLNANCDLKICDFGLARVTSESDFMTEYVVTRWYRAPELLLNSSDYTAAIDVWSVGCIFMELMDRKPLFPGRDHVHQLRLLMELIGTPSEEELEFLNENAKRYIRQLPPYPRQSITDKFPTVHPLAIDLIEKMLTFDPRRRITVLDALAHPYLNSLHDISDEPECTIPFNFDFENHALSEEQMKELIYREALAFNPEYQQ

Experiments:
[1] = target: T1, GST-AGB1 (Arabidopsis) (UniProt P49177); test: pull-down; GST fusion protein bound to glutathione sepharose 4B, incubated with purified His fusion protein in 20 mM HEPES pH 7.4, 1 mM EDTA, 5 mM MgCl2, 1 mM DTT, 0.1% Triton X-100, 1 mg/ml BSA, 1 mM PMSF, 4 h at 4°C; blot with HisProbe-HRP; both purified
T1 sequence: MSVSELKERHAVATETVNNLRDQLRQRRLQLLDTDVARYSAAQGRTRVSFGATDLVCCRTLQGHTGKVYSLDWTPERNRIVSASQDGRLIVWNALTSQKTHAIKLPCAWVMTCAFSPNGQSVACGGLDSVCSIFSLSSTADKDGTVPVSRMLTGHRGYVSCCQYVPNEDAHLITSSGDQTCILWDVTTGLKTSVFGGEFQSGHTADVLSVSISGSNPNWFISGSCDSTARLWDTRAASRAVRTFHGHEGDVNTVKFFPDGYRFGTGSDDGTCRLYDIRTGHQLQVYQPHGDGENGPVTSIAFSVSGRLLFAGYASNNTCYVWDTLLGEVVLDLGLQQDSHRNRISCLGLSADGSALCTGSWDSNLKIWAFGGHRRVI

[2] = target: T2, AGB1-YFP^N (Arabidopsis) (UniProt P49177); test: split reporter; BiFC with split YFP (pSPYNE-AGB1 and pSPYCE-MPK6) in protoplasts of Arabidopsis Col-0; 23°C, 16-20 h; confocal microscopy
T2 sequence: T1 sequence

[3] = target: BD-MPK6 (Arabidopsis) (UniProt Q39026); test: two-hybrid; direct test: AtMPK6 in pGBKT7 and AGB1 in pGADT7 co-transformed into yeast AH109; growth on SD/-Leu/-Trp/-His/-Ade, 3 d at 30°C
[4] = target: MPK6-Myc (Arabidopsis) (UniProt Q39026); test: co-IP; AGB1-Flag and MPK6-Myc transiently co-expressed in Arabidopsis protoplasts; lysate precipitated with anti-Myc agarose, 3 h at 4°C; blot with anti-Flag

His-MPK6 (from UniProt Q39026 1-395)
binding [1]: binds

MPK6-YFP^C (from UniProt Q39026 1-395)
binding [2]: binds

B1: AD-AGB1 (protein, UniProt P49177 1-377)
chain: T1 sequence
binding [3]: binds

B2: AGB1-Flag (protein, UniProt P49177 1-377)
chain: T1 sequence
binding [4]: binds
